Assay results as given in paper PMC10765824.
Results are given in words; binding and its absence hold for the method and conditions named. In cells and extracts the contact can be indirect. Some results given as binding are weak or reduced against the parent protein; the word gives no strength. For some assays here: Tags and fused reporters may be left off the sequences shown. Values belong to the binder of their own block, whether it stands above or below them.

Protein sequences, listed by entry. Tags and fused reporters are not part of them.
UniProt O60260: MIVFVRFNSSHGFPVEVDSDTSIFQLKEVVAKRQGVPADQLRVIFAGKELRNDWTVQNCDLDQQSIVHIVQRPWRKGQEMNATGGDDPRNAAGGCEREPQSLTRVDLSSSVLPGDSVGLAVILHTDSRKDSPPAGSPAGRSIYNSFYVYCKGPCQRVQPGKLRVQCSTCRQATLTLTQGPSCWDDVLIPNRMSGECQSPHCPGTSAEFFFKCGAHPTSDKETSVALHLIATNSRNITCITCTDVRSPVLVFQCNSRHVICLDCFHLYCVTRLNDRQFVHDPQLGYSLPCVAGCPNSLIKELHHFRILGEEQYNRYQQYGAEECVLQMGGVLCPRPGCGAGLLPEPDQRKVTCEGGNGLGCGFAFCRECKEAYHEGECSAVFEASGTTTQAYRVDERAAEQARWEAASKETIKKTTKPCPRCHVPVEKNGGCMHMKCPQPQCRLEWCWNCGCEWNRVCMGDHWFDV
UniProt P09874: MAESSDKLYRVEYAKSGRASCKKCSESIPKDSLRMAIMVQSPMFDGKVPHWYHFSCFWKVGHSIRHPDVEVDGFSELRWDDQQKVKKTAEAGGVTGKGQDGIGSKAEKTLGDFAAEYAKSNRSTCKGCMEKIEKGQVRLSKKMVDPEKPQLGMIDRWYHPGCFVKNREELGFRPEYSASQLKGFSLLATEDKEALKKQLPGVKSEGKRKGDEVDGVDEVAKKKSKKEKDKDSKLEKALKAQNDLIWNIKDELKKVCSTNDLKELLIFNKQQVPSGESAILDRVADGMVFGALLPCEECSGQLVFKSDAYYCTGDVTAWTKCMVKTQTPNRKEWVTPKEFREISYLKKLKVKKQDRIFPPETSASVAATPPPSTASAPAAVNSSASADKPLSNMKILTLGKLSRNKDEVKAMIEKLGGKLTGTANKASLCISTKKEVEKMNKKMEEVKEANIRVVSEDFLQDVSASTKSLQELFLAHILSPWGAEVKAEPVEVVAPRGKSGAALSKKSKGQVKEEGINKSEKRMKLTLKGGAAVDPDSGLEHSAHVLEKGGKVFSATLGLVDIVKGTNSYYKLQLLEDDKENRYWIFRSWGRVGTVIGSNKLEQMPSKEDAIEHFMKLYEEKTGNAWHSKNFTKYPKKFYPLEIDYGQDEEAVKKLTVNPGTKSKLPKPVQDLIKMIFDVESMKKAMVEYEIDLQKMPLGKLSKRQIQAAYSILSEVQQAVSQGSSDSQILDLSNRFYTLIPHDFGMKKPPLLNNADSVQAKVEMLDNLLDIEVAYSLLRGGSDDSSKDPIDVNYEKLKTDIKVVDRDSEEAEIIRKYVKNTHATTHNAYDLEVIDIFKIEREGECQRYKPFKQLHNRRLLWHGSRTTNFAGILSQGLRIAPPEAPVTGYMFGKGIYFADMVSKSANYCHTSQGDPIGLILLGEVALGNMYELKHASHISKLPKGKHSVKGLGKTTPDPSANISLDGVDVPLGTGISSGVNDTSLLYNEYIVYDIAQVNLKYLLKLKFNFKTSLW

What was measured:
[1] = molecular target: Flag-parkin (UniProt O60260); test: co-IP; Hek293 co-transfected with Myc-AIMP2 or Myc-DX2 and Flag-parkin, harvested after 24 h; lysate (1% Triton X-100 in PBS) immunoprecipitated by flag antibody, protein A/G agarose, 4 °C
[2] = molecular target: Poly(ADP-ribose) polymerase-1 (human (endogenous in SH-SY5Y)) (UniProt P09874); test: co-IP; SH-SY5Y after DX2 overexpression, or 48 h after DX2 siRNA or control siRNA; total lysate, PARP-1 immunoprecipitated with protein agarose beads, AIMP2 by immunoblot
[3] = molecular target: Poly(ADP-ribose) polymerase-1 (human (endogenous in SH-SY5Y)) (UniProt P09874); test: co-IP; called PARP-1 pull-down assay; SH-SY5Y transfected with AIMP2 or DX2 plasmid; lysate precipitated with PARP-1 antibody, Western blot
[4] = molecular target: T1, GFP- or myc-tagged AIMP2, Q13155; test: co-IP; GFP- or myc-tagged AIMP2 and/or DX2 plasmids transfected into cells; lysate immunoprecipitated with GFP antibody (opposite direction); details: remark: other sources report otherwise
T1 chain: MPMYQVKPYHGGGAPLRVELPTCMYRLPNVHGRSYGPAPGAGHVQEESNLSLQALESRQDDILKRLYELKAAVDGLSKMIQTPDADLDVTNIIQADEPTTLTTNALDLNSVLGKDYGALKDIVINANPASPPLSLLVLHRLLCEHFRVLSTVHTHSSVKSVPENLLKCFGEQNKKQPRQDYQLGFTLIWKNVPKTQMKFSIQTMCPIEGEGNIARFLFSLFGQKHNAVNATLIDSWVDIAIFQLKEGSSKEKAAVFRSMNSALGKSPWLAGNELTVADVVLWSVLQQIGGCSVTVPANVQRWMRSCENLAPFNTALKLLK

[5] = molecular target: T1, GFP- or myc-tagged AIMP2, Q13155; test: co-IP; GFP- or myc-tagged AIMP2 and/or DX2 plasmids transfected into cells; lysate immunoprecipitated with myc antibody; details: remark: other sources report otherwise
[6] = molecular target: GFP- or myc-tagged DX2 (UniProt Q13155); test: as above
[7] = molecular target: T2, GFP- or myc-tagged AIMP2 (UniProt Q13155); test: as above
T2 sequence: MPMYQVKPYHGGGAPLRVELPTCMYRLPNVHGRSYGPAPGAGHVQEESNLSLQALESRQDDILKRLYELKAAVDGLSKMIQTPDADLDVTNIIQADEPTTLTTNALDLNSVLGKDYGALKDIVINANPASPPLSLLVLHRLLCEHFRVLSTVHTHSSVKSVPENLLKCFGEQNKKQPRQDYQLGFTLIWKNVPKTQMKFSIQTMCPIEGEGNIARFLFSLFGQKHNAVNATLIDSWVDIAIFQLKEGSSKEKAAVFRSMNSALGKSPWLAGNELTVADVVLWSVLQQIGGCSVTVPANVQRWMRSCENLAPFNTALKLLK

[8] = molecular target: GFP- or myc-tagged DX2 (UniProt Q13155); test: co-IP; GFP- or myc-tagged AIMP2 and/or DX2 plasmids transfected into cells; lysate immunoprecipitated with GFP antibody (opposite direction)
[9] = molecular target: T2, GFP- or myc-tagged AIMP2; test: as above

B1: Myc-tagged AIMP2 (protein, UniProt Q13155 1-320)
chain: MPMYQVKPYHGGGAPLRVELPTCMYRLPNVHGRSYGPAPGAGHVQEESNLSLQALESRQDDILKRLYELKAAVDGLSKMIQTPDADLDVTNIIQADEPTTLTTNALDLNSVLGKDYGALKDIVINANPASPPLSLLVLHRLLCEHFRVLSTVHTHSSVKSVPENLLKCFGEQNKKQPRQDYQLGFTLIWKNVPKTQMKFSIQTMCPIEGEGNIARFLFSLFGQKHNAVNATLIDSWVDIAIFQLKEGSSKEKAAVFRSMNSALGKSPWLAGNELTVADVVLWSVLQQIGGCSVTVPANVQRWMRSCENLAPFNTALKLLK
binding [1]: binds

B3: AIMP2 (transfected in SH-SY5Y) (protein, UniProt Q13155 1-320)
chain: MPMYQVKPYHGGGAPLRVELPTCMYRLPNVHGRSYGPAPGAGHVQEESNLSLQALESRQDDILKRLYELKAAVDGLSKMIQTPDADLDVTNIIQADEPTTLTTNALDLNSVLGKDYGALKDIVINANPASPPLSLLVLHRLLCEHFRVLSTVHTHSSVKSVPENLLKCFGEQNKKQPRQDYQLGFTLIWKNVPKTQMKFSIQTMCPIEGEGNIARFLFSLFGQKHNAVNATLIDSWVDIAIFQLKEGSSKEKAAVFRSMNSALGKSPWLAGNELTVADVVLWSVLQQIGGCSVTVPANVQRWMRSCENLAPFNTALKLLK
binding [3]: binds

B4: GFP- or myc-tagged AIMP2, Q13155 1-320 (protein)
chain: MPMYQVKPYHGGGAPLRVELPTCMYRLPNVHGRSYGPAPGAGHVQEESNLSLQALESRQDDILKRLYELKAAVDGLSKMIQTPDADLDVTNIIQADEPTTLTTNALDLNSVLGKDYGALKDIVINANPASPPLSLLVLHRLLCEHFRVLSTVHTHSSVKSVPENLLKCFGEQNKKQPRQDYQLGFTLIWKNVPKTQMKFSIQTMCPIEGEGNIARFLFSLFGQKHNAVNATLIDSWVDIAIFQLKEGSSKEKAAVFRSMNSALGKSPWLAGNELTVADVVLWSVLQQIGGCSVTVPANVQRWMRSCENLAPFNTALKLLK
binding [4]: binds
binding [5]: binds

B7: DX2 (transfected in SH-SY5Y) (protein, UniProt Q13155-2 1-251)
chain: MPMYQVKPYHGGGAPLRVELPTCMYRLPNVHGRSYGPAPGAGHVQDYGALKDIVINANPASPPLSLLVLHRLLCEHFRVLSTVHTHSSVKSVPENLLKCFGEQNKKQPRQDYQLGFTLIWKNVPKTQMKFSIQTMCPIEGEGNIARFLFSLFGQKHNAVNATLIDSWVDIAIFQLKEGSSKEKAAVFRSMNSALGKSPWLAGNELTVADVVLWSVLQQIGGCSVTVPANVQRWMRSCENLAPFNTALKLLK
binding [3]: binds

The next lines start with the values.

binding [2]: binds
B2: AIMP2 (in SH-SY5Y cells with DX2 overexpression or DX2 siRNA) (protein, UniProt Q13155 1-320)
chain: MPMYQVKPYHGGGAPLRVELPTCMYRLPNVHGRSYGPAPGAGHVQEESNLSLQALESRQDDILKRLYELKAAVDGLSKMIQTPDADLDVTNIIQADEPTTLTTNALDLNSVLGKDYGALKDIVINANPASPPLSLLVLHRLLCEHFRVLSTVHTHSSVKSVPENLLKCFGEQNKKQPRQDYQLGFTLIWKNVPKTQMKFSIQTMCPIEGEGNIARFLFSLFGQKHNAVNATLIDSWVDIAIFQLKEGSSKEKAAVFRSMNSALGKSPWLAGNELTVADVVLWSVLQQIGGCSVTVPANVQRWMRSCENLAPFNTALKLLK

binding [6]: binds weakly
binding [7]: binds
binding [8]: binds weakly
binding [9]: binds
B5: GFP- or myc-tagged DX2 (protein, UniProt Q13155-2 1-251)
chain: MPMYQVKPYHGGGAPLRVELPTCMYRLPNVHGRSYGPAPGAGHVQDYGALKDIVINANPASPPLSLLVLHRLLCEHFRVLSTVHTHSSVKSVPENLLKCFGEQNKKQPRQDYQLGFTLIWKNVPKTQMKFSIQTMCPIEGEGNIARFLFSLFGQKHNAVNATLIDSWVDIAIFQLKEGSSKEKAAVFRSMNSALGKSPWLAGNELTVADVVLWSVLQQIGGCSVTVPANVQRWMRSCENLAPFNTALKLLK

binding [1]: binds
B6: Myc-tagged DX2 (protein, UniProt Q13155-2 1-251)
chain: MPMYQVKPYHGGGAPLRVELPTCMYRLPNVHGRSYGPAPGAGHVQDYGALKDIVINANPASPPLSLLVLHRLLCEHFRVLSTVHTHSSVKSVPENLLKCFGEQNKKQPRQDYQLGFTLIWKNVPKTQMKFSIQTMCPIEGEGNIARFLFSLFGQKHNAVNATLIDSWVDIAIFQLKEGSSKEKAAVFRSMNSALGKSPWLAGNELTVADVVLWSVLQQIGGCSVTVPANVQRWMRSCENLAPFNTALKLLK
